Results are given in words; binding and its absence hold for the method and conditions named. Some binding calls cover weakened binding; strength is not graded here.
B1: 206A54 (designed binder)
chain: HHHHHHGSGLNDIFEAQKIEWHEAENLYFQSGSTEDERRELEKVARKAIEAAREGNTDEVREQLQRALEIARESGTTEAVKLALEVVARVAIEAARRGNTDAVREALEVALEIARESGTTEAVKLALEVVARVAIEAARRGNTDAVREALAVAVKIALKSGTEEAFRLAKEVIKRVSDEAKKQGNEDAVKEAESFDAAAELILSLLKLFRELHERGTEIVVEVHINGRKTEIEVQGIDKRLLQIILEVIIEEIAREGPDKVEVNVHSGGQTWTFRYGGS
B2: LHD274 chainB (designed binder)
chain: NTHFIVVHGSEEARQRAEEYVRRISKKEGTEVRFEKKDGLLSIEVKNLSEERQREIQEYLQRVQK
B3: 202A21 (designed binder)
single chain, LHD202 chain A fused to DHR21: HHHHHHGSGLNDIFEAQKIEWHEAENLYFQSGSSEKEKVEELAQRIREQLPDTELAREAQELADEARKSDDSEALKVVYLALRIVQQLPDTELAREALELAKEAVKSTDPAQLIVVQLALKIVQKLPDTEEARRALELAKEAVKSTNKAELVVIAIELLVLLMGVTMEVHKSGNKVKVVIKGLHESQQEQLRKLVHEALRAAGVVAVTQKHGDTVTIYVTEGS
B4: 202B57 (designed binder)
chain: GSSVEFHIVNISEKAAQIIERAVRAISKELGTEVRFEKRDGELTIEVKNLHERRLQEILLLIEAVKLLLLALKAVKEDPSTDALRAVLEAVRFASEVAKRVENPEAVAVLAELVIELALEAVKEDPSTDALRAVLEAVRLASEVAKRVTDADKALKIAKLVIELALEAVKEDPSEEAKRAVEEAKRLAEEVSKRVTDPELSEKIRQLVKELEEEAQKEDPSGSHHWGSGLNDIFEAQKIEWHEGSHHHHHH

Legend:
206A54 = test: SEC titration of the protomer alone at several injection concentrations (Superdex 200, normalised A230); self-association
LHD274 chainB = test: SEC titration (FIG. 10, protomers fused to DHR53); self-association
202A21 = test: SEC titration of the protomer alone at several injection concentrations (Superdex 200, normalised A230); self-association
202B57 = target: B4; test: as above

Binder: B1
binding (206A54): no binding (tested: 32.0 uM)

Binder: B2
binding (LHD274 chainB): binds

Binder: B3
binding (202A21): no binding (tested: 32.0 uM)

Binder: B4
binding (202B57): no binding (tested: 8.0 uM)
